These are yes or no findings as the source states them, for the method shown. Binding seen in cells or lysates may run through a third protein. Some entries that bind do so weakly or less than the wild type.
Molecular target: HEXIM1 (human (endogenous in HCT116)) (UniProt O94992)
Experiment: co-IP; anti-HEXIM1 antibody on Dynabeads Protein G incubated overnight at 4 °C with whole-cell extracts of HCT116 or HCT116 CDK12as/as cells (lysis buffer C: 20 mM Tris-HCl, 0.5% NP-40, 150 mM NaCl, 1.5 mM MgCl2, 10 mM KCl, 10% glycerol, 0.5 mM EDTA, pH 7.9); CDK9 and HEXIM1 detected by Western …; cells treated beforehand with DMSO, THZ531 (300 or 400 nM), THZ532 (400 nM), 3-MB-PP1 or KU-60019 (5 μM)

By UniProt entry, the sequences of proteins in these tests, tags left out.
UniProt O94992: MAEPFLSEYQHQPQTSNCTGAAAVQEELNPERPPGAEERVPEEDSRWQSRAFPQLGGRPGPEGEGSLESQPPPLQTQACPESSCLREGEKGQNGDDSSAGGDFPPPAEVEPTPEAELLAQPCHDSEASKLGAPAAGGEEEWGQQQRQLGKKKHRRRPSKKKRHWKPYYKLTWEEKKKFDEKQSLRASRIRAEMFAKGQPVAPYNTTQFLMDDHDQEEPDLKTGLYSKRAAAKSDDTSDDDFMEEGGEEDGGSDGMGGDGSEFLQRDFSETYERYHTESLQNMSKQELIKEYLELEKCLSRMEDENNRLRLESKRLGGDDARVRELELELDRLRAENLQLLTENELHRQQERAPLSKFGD
UniProt P50750: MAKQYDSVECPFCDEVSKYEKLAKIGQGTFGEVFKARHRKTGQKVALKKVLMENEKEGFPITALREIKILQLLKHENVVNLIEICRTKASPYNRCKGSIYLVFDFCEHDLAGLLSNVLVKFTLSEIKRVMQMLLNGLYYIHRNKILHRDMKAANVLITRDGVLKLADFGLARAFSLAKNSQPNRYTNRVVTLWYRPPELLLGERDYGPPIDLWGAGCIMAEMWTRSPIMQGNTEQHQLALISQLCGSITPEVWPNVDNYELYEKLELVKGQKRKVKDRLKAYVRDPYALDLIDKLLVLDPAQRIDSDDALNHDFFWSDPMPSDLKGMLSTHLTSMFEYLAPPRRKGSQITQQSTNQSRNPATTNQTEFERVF

CDK9 (from UniProt P50750 1-372) (enzyme)
binding: binds

From PMC10639066
